From publication PMC6265450
These are yes or no findings as the source states them, for the method shown. Some results given as binding are weak or reduced against the parent protein; the word gives no strength. Tags and fused reporters may be left off the sequences shown.

Chains of the proteins cited; added tags and fusions are not shown.
UniProt P12004: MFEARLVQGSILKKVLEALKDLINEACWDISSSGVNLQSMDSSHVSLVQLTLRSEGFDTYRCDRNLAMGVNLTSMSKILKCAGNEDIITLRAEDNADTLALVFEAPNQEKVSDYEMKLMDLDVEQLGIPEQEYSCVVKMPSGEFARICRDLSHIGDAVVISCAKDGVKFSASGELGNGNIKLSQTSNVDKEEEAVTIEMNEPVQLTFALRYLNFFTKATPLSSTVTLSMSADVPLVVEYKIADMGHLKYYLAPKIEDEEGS

Target: T1, histidine-tagged helicase-like transcription factor (^hisHLTF) (human) (UniProt Q14527)
T1 sequence: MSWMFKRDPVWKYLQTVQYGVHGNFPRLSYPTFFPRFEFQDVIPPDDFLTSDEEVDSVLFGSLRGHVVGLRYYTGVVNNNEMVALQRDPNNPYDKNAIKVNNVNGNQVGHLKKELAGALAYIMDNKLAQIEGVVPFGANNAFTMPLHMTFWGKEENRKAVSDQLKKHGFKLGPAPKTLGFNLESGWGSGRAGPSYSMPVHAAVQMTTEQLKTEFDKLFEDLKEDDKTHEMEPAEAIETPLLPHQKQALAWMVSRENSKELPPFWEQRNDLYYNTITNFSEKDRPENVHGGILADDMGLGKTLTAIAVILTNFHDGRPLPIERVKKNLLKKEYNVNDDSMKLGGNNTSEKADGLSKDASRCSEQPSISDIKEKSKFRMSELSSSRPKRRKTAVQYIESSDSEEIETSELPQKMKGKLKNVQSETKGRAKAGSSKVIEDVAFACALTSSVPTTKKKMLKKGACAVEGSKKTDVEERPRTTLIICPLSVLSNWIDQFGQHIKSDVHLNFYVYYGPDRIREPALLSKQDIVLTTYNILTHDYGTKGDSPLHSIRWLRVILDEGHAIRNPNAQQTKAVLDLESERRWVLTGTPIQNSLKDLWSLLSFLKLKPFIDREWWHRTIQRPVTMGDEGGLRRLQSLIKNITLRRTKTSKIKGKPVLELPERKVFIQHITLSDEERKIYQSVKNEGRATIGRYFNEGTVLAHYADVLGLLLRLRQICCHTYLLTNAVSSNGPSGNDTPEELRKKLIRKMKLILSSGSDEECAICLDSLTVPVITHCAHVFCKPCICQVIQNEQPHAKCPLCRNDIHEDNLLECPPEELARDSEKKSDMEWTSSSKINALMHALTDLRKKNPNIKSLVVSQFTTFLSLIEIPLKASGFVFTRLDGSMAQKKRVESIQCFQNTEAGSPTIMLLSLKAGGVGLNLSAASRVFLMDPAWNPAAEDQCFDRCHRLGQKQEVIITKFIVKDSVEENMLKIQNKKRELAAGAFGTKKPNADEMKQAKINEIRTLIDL
Experiment: pull-down; 10 pmol histidine-tagged protein on Ni-charged IMAC resin; 2.5 pmol PCNA, on ice 5 min; 20 mM HEPES-NaOH pH 7.5, 50 mM NaCl, 10 mM imidazole, 0.2 mg/ml BSA, 1 mM DTT; blot with anti-PCNA; both purified

binding: binds weakly
Substance: proliferating cell nuclear antigen (PCNA) (from UniProt P12004 1-261)
